# Reference: PubChem BioAssay AID330 (DTP/NCI, 2004)
# The list is a part of this screen's results and no random one: it is rich in T/C values a quarter to a half above the control, in often repeated tests (any T/C) and in doses without a T/C. Other doses and runs of a compound stand elsewhere. T/C is the treated group as % of the vehicle group. Some entries give survivors of the animals treated and no T/C: the source holds a T/C of zero for them, seemingly a mark for toxic or unscored doses. Some doses without a T/C left all or most animals alive at the check, yet need not have been tolerated: survival well below the control is almost never listed, so the zero probably covers shortened survival too. Survivors were counted at the toxicity check, usually on the fifth day, unless a day is given; later deaths do not show. Schedule codes are those of the source, taken here to give the interval after Q, in days (D) or hours (H), and the number of doses after X. Some molecules as drawn cover several salts, stereoisomers or complexes of the source; a dose is that of the sample tested. Some doses were run more than once; the results are listed from low to high. For survival time, the PubChem record calls one and a half times the control and up active, and a quarter to a half above the control has no call in these data; cut-offs in other NCI protocols can differ. Some T/C values are followed by the survivors on the day toxicity was checked, most often the fifth; without a count, all were alive then.
# System: P388 leukemia ip, CD2F1 mice, survival T/C
# Test: NCI In Vivo Anticancer Drug Screen. Data for tumor model P388 Leukemia (intraperitoneal) in CD2F1 (CDF1) mice
# Settings: T/C endpoint: median survival time, higher T/C = longer survival
compound,measurement,setting,value
NC(C/[N+]([O-])=N/O)C(=O)O (stereo unspecified),T/C,"dose: 5.0 mg/kg/injection, schedule: Q01DX009 (ip), vehicle: alkali diluted with saline",127 % of control
same,T/C,"dose: 8.64 mg/kg/injection, schedule: Q01DX009 (ip), vehicle: alkali diluted with saline",126 % of control
same,T/C,"dose: 9.38 mg/kg/injection, schedule: Q01DX009 (ip), vehicle: alkali diluted with water",128 % of control
same,T/C,"dose: 10.0 mg/kg/injection, schedule: Q01DX009 (ip), vehicle: alkali diluted with saline",140 % of control
same,T/C,"dose: 14.4 mg/kg/injection, schedule: Q01DX009 (ip), vehicle: alkali diluted with saline",135 % of control
same,T/C,"dose: 15.0 mg/kg/injection, schedule: Q01DX005 (ip), vehicle: alkali diluted with saline",138 % of control
same,T/C,"dose: 15.6 mg/kg/injection, schedule: Q01DX009 (ip), vehicle: saline",131 % of control
same,T/C,"dose: 15.6 mg/kg/injection, schedule: Q01DX009 (ip), vehicle: water",140 % of control
same,T/C,"dose: 16.2 mg/kg/injection, schedule: Q01DX009 (ip), vehicle: alkali diluted with saline",130 and 138 % of control
same,T/C,"dose: 18.75 mg/kg/injection, schedule: Q01DX009 (ip), vehicle: alkali diluted with saline",146 % of control
same,T/C,"dose: 18.75 mg/kg/injection, schedule: Q01DX009 (ip), vehicle: alkali diluted with water",142 % of control
same,T/C,"dose: 18.8 mg/kg/injection, schedule: Q01DX009 (ip), vehicle: alkali diluted with saline",149 % of control
same,T/C,"dose: 19.8 mg/kg/injection, schedule: Q01DX010 (ip), vehicle: alkali diluted with saline",126 % of control
same,T/C,"dose: 20.0 mg/kg/injection, schedule: Q01DX005 (ip), vehicle: alkali diluted with saline",133 % of control
same,T/C,"dose: 20.0 mg/kg/injection, schedule: Q01DX009 (ip), vehicle: alkali diluted with saline",141 % of control
same,T/C,"dose: 24.0 mg/kg/injection, schedule: Q01DX009 (ip), vehicle: alkali diluted with saline",137 % of control [7 of 8 alive]
same,T/C,"dose: 27.0 mg/kg/injection, schedule: Q01DX009 (ip), vehicle: alkali diluted with saline",144 % of control
same,T/C,"dose: 28.13 mg/kg/injection, schedule: Q04DX003 (ip), vehicle: alkali diluted with saline",129 % of control [7 of 8 alive]
same,T/C,"dose: 29.6 mg/kg/injection, schedule: Q01DX010 (ip), vehicle: alkali diluted with saline",141 % of control
same,T/C,"dose: 30.0 mg/kg/injection, schedule: Q01DX009 (ip), vehicle: Klucel (hydroxypropylcellulose) (HPC)",137 % of control
same,T/C,"dose: 31.3 mg/kg/injection, schedule: Q01DX005 (ip), vehicle: saline with Tween-80",128 % of control
same,T/C,"dose: 31.3 mg/kg/injection, schedule: Q01DX009 (ip), vehicle: saline",136 % of control
same,T/C,"dose: 31.3 mg/kg/injection, schedule: Q01DX009 (ip), vehicle: water",145 % of control
same,T/C,"dose: 37.5 mg/kg/injection, schedule: Q01DX009 (ip), vehicle: alkali diluted with water",148 % of control
same,T/C,"dose: 40.0 mg/kg/injection, schedule: Q01DX009 (ip), vehicle: Klucel (hydroxypropylcellulose) (HPC)",142 % of control
same,T/C,"dose: 40.0 mg/kg/injection, schedule: Q01DX009 (ip), vehicle: alkali diluted with saline",147 % of control
same,T/C,"dose: 44.4 mg/kg/injection, schedule: Q01DX010 (ip), vehicle: alkali diluted with saline",142 % of control
same,T/C,"dose: 50.0 mg/kg/injection, schedule: Q01DX009 (ip), vehicle: Klucel (hydroxypropylcellulose) (HPC)",142 % of control
same,T/C,"dose: 50.0 mg/kg/injection, schedule: Q04DX003 (ip), vehicle: alkali diluted with saline, evaluated on day 30",137 and 142 % of control
same,T/C,"dose: 50.0 mg/kg/injection, schedule: Q04DX003 (ip), vehicle: alkali diluted with saline, evaluated on day 45",148 % of control
same,T/C,"dose: 50.0 mg/kg/injection, schedule: Q04DX003 (ip), vehicle: alkali diluted with water",140 % of control
same,T/C,"dose: 56.25 mg/kg/injection, schedule: Q04DX003 (ip), vehicle: alkali diluted with saline",143 % of control
same,T/C,"dose: 62.5 mg/kg/injection, schedule: Q01DX005 (ip), vehicle: saline with Tween-80",130 % of control
same,T/C,"dose: 64.8 mg/kg/injection, schedule: Q04DX003 (ip), vehicle: alkali diluted with saline",146 % of control
same,T/C,"dose: 66.7 mg/kg/injection, schedule: Q01DX010 (ip), vehicle: alkali diluted with saline",135 % of control
same,T/C,"dose: 75.0 mg/kg/injection, schedule: Q01DX009 (ip), vehicle: alkali diluted with saline, evaluated on day 5",90 and 190 % of control
same,T/C,"dose: 75.0 mg/kg/injection, schedule: Q01DX009 (ip), vehicle: alkali diluted with saline, evaluated on day 30",97 and 178 % of control
same,T/C,"dose: 100.0 mg/kg/injection, schedule: Q04DX003 (ip), vehicle: alkali diluted with saline, evaluated on day 30","140, 148, 152 % of control"
same,T/C,"dose: 100.0 mg/kg/injection, schedule: Q04DX003 (ip), vehicle: alkali diluted with saline, evaluated on day 45",151 % of control
same,T/C,"dose: 100.0 mg/kg/injection, schedule: Q04DX003 (ip), vehicle: alkali diluted with water",140 % of control
same,survivor count,"dose: 125.0 mg/kg/injection, schedule: Q01DX009 (ip), vehicle: water",10 of 10
same,survivor count,"dose: 150.0 mg/kg/injection, schedule: Q01DX009 (ip), vehicle: alkali diluted with saline",6 of 6 and 8 of 8
same,T/C,"dose: 200.0 mg/kg/injection, schedule: Q04DX003 (ip), vehicle: alkali diluted with saline, evaluated on day 30","155, 168, 169 % of control"
same,T/C,"dose: 200.0 mg/kg/injection, schedule: Q04DX003 (ip), vehicle: alkali diluted with saline, evaluated on day 45",187 % of control
same,survivor count,"dose: 250.0 mg/kg/injection, schedule: Q01DX009 (ip), vehicle: saline",10 of 10
same,survivor count,"dose: 250.0 mg/kg/injection, schedule: Q01DX009 (ip), vehicle: water",9 of 10
same,T/C,"dose: 400.0 mg/kg/injection, schedule: Q04DX003 (ip), vehicle: alkali diluted with saline, evaluated on day 30","175, 180 [6 of 8 alive], 199 % of control"
same,T/C,"dose: 400.0 mg/kg/injection, schedule: Q04DX003 (ip), vehicle: alkali diluted with saline, evaluated on day 45",200 % of control
same,T/C,"dose: 400.0 mg/kg/injection, schedule: Q04DX003 (ip), vehicle: alkali diluted with water",131 % of control
same,survivor count,"dose: 500.0 mg/kg/injection, schedule: Q01DX009 (ip), vehicle: saline",5 of 10
same,survivor count,"dose: 500.0 mg/kg/injection, schedule: Q01DX009 (ip), vehicle: water",10 of 10
same,T/C,"dose: 800.0 mg/kg/injection, schedule: Q04DX003 (ip), vehicle: alkali diluted with saline, evaluated on day 30",120 % of control
same,T/C,"dose: 800.0 mg/kg/injection, schedule: Q04DX003 (ip), vehicle: alkali diluted with saline, evaluated on day 45",131 % of control
same,survivor count,"dose: 800.0 mg/kg/injection, schedule: Q04DX003 (ip), vehicle: alkali diluted with saline",6 of 8 and 6 of 6
OC(CNC1CCCCC1)CO/N=C1\CCSc2c(Cl)cccc21 (stereo unspecified),survivor count,"dose: 50.0 mg/kg/injection, schedule: Q04DX002 (ip), vehicle: Klucel (hydroxypropylcellulose) (HPC)",2 of 6
same,survivor count,"dose: 100.0 mg/kg/injection, schedule: Q04DX002 (ip), vehicle: Klucel (hydroxypropylcellulose) (HPC)",0 of 6
same,survivor count,"dose: 200.0 mg/kg/injection, schedule: Q04DX002 (ip), vehicle: Klucel (hydroxypropylcellulose) (HPC)",0 of 6
same,survivor count,"dose: 400.0 mg/kg/injection, schedule: Q04DX002 (ip), vehicle: Klucel (hydroxypropylcellulose) (HPC)",0 of 6
O=c1n(-c2ccccc2)c(=O)n2n1C1C=CC2C2C3OC3C21 (stereo unspecified),survivor count,"dose: 100.0 mg/kg/injection, schedule: Q04DX003 (ip), vehicle: Klucel (hydroxypropylcellulose) (HPC)",0 of 6
same,survivor count,"dose: 200.0 mg/kg/injection, schedule: Q04DX003 (ip), vehicle: Klucel (hydroxypropylcellulose) (HPC)",0 of 6
same,survivor count,"dose: 400.0 mg/kg/injection, schedule: Q04DX003 (ip), vehicle: Klucel (hydroxypropylcellulose) (HPC)",0 of 6
O=C(CN1CCCCC1)Nc1ccc(Br)cc1,survivor count,"dose: 100.0 mg/kg/injection, schedule: Q01DX009 (ip), vehicle: saline",6 of 6
same,survivor count,"dose: 200.0 mg/kg/injection, schedule: Q01DX009 (ip), vehicle: saline",3 of 6
same,survivor count,"dose: 400.0 mg/kg/injection, schedule: Q01DX009 (ip), vehicle: saline",3 of 6
C[N+](C)(C)/C=C/c1ccc([N+](=O)[O-])o1,survivor count,"dose: 200.0 mg/kg/injection, schedule: Q01DX009 (ip), vehicle: suspension in saline",1 of 6
c1ccc([P+](COC[P+](c2ccccc2)(c2ccccc2)c2ccccc2)(c2ccccc2)c2ccccc2)cc1,survivor count,"dose: 25.0 mg/kg/injection, schedule: Q01DX009 (ip), vehicle: Klucel (hydroxypropylcellulose) (HPC)",0 of 6
